From paper PMC12090600
Results are given in words; binding and its absence hold for the method and conditions named. Binding calls can cover weak binding; strength is not graded here. For part of these data: Where a sequence is shown, tags or fusion partners need not be part of it. For part of these data: In cells and extracts the contact can be indirect.

Tests used:
[1] = biological target: T1, Arginase-1 (endogenous, mouse) (mouse (endogenous in mouse macrophage cell line and BV2)) (UniProt Q61176); assay: co-IP; BV2 cells infected with ME49wt or ME49Δcdpk3 at MOI of 3; IP of Arginase-1 from infected cell lysates; detected with rabbit polyclonal TgCDPK3 antibody
T1 sequence: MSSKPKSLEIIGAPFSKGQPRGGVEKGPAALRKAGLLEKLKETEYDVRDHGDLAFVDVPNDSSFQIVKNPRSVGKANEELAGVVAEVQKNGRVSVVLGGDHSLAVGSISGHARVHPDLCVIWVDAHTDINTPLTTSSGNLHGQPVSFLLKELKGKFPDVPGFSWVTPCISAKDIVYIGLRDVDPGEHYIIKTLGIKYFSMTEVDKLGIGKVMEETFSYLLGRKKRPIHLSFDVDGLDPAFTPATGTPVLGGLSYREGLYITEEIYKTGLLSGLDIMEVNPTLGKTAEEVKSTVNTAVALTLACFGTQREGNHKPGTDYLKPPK

[2] = biological target: TgCDPK3-GST (Toxoplasma gondii (ME49 strain)); assay: pull-down; TgCDPK3-GST or GST on glutathione magnetic agarose beads, incubated with purified Arginase-1-His at 4 °C for 2 h; washed with PBS with 1% Triton X-100; anti-His blot; both purified
[3] = biological target: TgCDPK3-GFP (Toxoplasma gondii (ME49 strain)); assay: co-IP; 293T lysates; anti-GFP antibody on Protein A + G affinity gel for 4 h; blotted with anti-GFP and anti-Arginase-1

In the case of “endogenous TgCDPK3 (Toxoplasma gondii (endogenous in ME49wt)) (enzyme)”, the binding [1] is reported as “binds”.

B1: Arginase-1-His (enzyme, UniProt P05089-1 1-322)
chain: MSAKSRTIGIIGAPFSKGQPRGGVEEGPTVLRKAGLLEKLKEQECDVKDYGDLPFADIPNDSPFQIVKNPRSVGKASEQLAGKVAEVKKNGRISLVLGGDHSLAIGSISGHARVHPDLGVIWVDAHTDINTPLTTTSGNLHGQPVSFLLKELKGKIPDVPGFSWVTPCISAKDIVYIGLRDVDPGEHYILKTLGIKYFSMTEVDRLGIGKVMEETLSYLLGRKKRPIHLSFDVDGLDPSFTPATGTPVVGGLTYREGLYITEEIYKTGLLSGLDIMEVNPSLGKTPEEVTRTVNTAVAITLACFGLAREGNHKPIDYLNPPK
For B1, the binding [2] was “binds”.

B2: Arginase-1 (in HEK293T cells) (enzyme, UniProt P05089-1 1-322)
chain: B1 chain
For B2, the binding [3] was “binds”.
